This assay addresses human CD34 on cells (CD34+ cells of peripheral and cord blood; CD34-expressing cell line) (human) (UniProt P28906). Briefly: flow cytometry, Jurkat cells, 10 µg/ml primary antibody, α-rat AF647 secondary; the dashed histogram is taken as the control (no key on the sheet). (In flow cytometry, cells or beads pass a laser one at a time.)

The chains behind the UniProt entries cited, without tags or fusion partners. Residues count along the entry.
UniProt P28906, residues 32-385: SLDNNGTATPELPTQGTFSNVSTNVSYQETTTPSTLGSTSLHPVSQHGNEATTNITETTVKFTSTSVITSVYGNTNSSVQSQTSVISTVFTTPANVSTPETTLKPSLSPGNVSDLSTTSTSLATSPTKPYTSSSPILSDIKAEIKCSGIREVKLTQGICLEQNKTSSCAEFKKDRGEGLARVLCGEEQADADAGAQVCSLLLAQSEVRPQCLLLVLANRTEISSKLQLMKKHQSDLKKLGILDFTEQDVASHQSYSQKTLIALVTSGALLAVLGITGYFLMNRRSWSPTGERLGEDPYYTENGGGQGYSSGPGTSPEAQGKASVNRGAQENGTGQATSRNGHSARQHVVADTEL

These are yes or no findings as the source states them, for the method shown. Some binding calls cover weakened binding; strength is not graded here.

Experimental findings from patent publication US20230405146A1 are described below.

B1: L.1c7 (antibody, V domains shown)
VH: EMQLLESGGGLVQPGGSLRLSCAASGFTFGHFAMSWVRQVPGKGLDWVSAISGGGSFTYSADSVKGRFTTSRDNSKNTLYLQMSSLRAEDTALYYCAKDQGYDYSWYYFDFWGQGTLVTVSS
VL: DIQMTQSPSTLSASVGDRVTITCRASQSISSWLAWYQQRPGKAPKLLIYKASSLESGVPSRFSGRGSGTEFTLTISSLQPDDFATYYCQQYKSHSITFGQGTRLEIK
Consider B1, for which the binding result is given as “binds”.
